According to patent US20170368169A1:
These are yes or no findings as the source states them, for the method shown. Some entries that bind do so weakly or less than the wild type.

Columns and labels:
[1] = target: human PD1L1 (generated from SEQ ID NO: 178) (human); assay: ELISA
[2] = target: human IL2Rα (generated from SEQ ID NO: 182) (human); assay: ELISA

| Substance | binding [1] | binding [2] |
| --- | --- | --- |
| Multispecific molecule 11 (from UniProt P0DOX7 1-214; P0DOX5 1-449; P0DOX8 1-216) | binds |  |
| Multispecific molecule 8 (from UniProt P0DOX7 1-214; P0DOX8 1-216) | binds | binds |
| Multispecific molecule 12 (from UniProt P0DOX7 1-214; P0DOX8 1-216) | binds | binds |
| Multispecific molecule 10 (from UniProt P0DOX7 1-214; P0DOX8 1-216) | binds | binds |
| Multispecific molecule 9 (from UniProt P0DOX7 1-214; P0DOX5 1-449; P0DOX8 1-216) | binds |  |
